Measured values as given in the supplement of paper PMC3334620.
In all, about 33,000 sequences were measured (“E-score (-0.5 to 0.5)”: median about -0.0014, highest 2% from about 0.25 on). The list shows a part of the results.

Target: T1, Cad1 (UniProt P24813)
T1 sequence: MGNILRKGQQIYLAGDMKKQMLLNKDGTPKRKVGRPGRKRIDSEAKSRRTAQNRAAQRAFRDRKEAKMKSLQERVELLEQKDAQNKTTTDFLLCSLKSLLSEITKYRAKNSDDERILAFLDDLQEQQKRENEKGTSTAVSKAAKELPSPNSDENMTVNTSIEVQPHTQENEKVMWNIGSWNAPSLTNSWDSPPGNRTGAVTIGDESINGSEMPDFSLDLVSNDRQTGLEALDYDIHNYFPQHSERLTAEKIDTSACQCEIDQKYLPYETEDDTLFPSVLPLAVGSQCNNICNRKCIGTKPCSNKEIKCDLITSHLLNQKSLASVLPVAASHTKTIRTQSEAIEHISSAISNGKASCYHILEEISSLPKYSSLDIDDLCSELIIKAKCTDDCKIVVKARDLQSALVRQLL
Experiment: PBM E-score (8-mer binding enrichment) (E-score (-0.5 to 0.5)); higher = stronger / more preferred TF binding
Conditions: protein concentration: 100 nM; construct: GST-full length
Summary of the method: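 Full-length yeast transcription factors or their DNA-binding domains, GST-tagged and expressed with PURExpress, were applied at about 100-200 nM to universal all-10-mer Agilent arrays. These arrays had been made double-stranded by primer extension on fresh or once-stripped slides. Detection used fluorescent anti-GST, normalisation used masliner, and E-scores for ungapped eight-base words pooled with reverse complements came from the Universal PBM Analysis Suite.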

Row | Sequence | PBM E-score
1 | AGATTACC | 0.107
2 | CTTATGCA | 0.208
3 | GTAAGTAC | 0.178
4 | AGCACGAA | 0.124
5 | AGTGAGGC | -0.0305
6 | CCACCCAC | -0.037
7 | GCCTGCTA | -0.104
8 | ATTCATTC | 0.188
9 | CATTTTAC | 0.198
10 | AGGCCCCT | -0.317
11 | TACTGCGA | 0.0327
12 | CACGGACA | 0.165
13 | TCAAACGA | 0.0831
14 | GACATATA | 0.0919
15 | CTCCATGA | 0.0675
16 | AAGCGTAA | -0.0377
17 | GAGACTTA | -0.0545
18 | AGCCATAA | 0.0866
19 | AGACATCC | 0.0198
20 | AAATTGTA | 0.138
21 | TAGTAACA | 0.255
22 | CGCTATTC | 0.216
23 | CAGCCGTC | 0.144
24 | AATGCCTC | -0.148

Row | Sequence | PBM E-score
25 | ATTGTATG | 0.0441
26 | ACGAGTTA | -0.0705
27 | CCCCAAGA | -0.0621
28 | GCAGCTTA | 0.175
29 | GTCTAGAC | -0.0167
30 | TAATTGCA | 0.125
31 | ATACCGCC | 0.0415
32 | GTCTTGTA | -0.181
33 | ATCTGGCC | -0.14
34 | TAATGGTA | 0.14
35 | CCTCCCAC | -0.156
36 | GGTCGGGA | -0.026
37 | CTCATTCC | 0.0154
38 | ACATACCA | -0.126
39 | AACGTTAT | 0.116
40 | ATTGCGGG | -0.0181
41 | CCGGATCG | 0.0999
42 | ACGTAACT | -0.0865
43 | AGAGCAAC | -0.18
44 | AGTATTTG | 0.0255
45 | GATGACGC | 0.00196
46 | CGGCAATC | 0.0196
47 | CGCATGGC | -0.0849
48 | GAAAGACA | -0.00185

Row | Sequence | PBM E-score
49 | CGTTACTA | 0.0425
50 | CCGGAGGC | -0.2
51 | CTCTCACA | 0.0689
52 | AGTCACGA | 0.0372
53 | ATTCCTAC | 0.0998
54 | AAGTCAAT | -0.0231
55 | ATTATCCG | 0.139
56 | GTGTGCCA | -0.131
57 | CTGTGAGA | -0.11
58 | AAGCGCTC | 0.0197
59 | AAGACCGA | -0.0676
60 | AGCGCTAT | 0.278
61 | AGAACTCG | 0.00613
62 | CAGGTTTC | 0.111
63 | CCGGGTTA | -0.0609
64 | CGTTCTGA | -0.16
65 | GCAGTTCA | 0.0882
66 | ATTATCGG | 0.0117
67 | GGGAGTCA | -0.0614
68 | ACCCCGGG | -0.111
69 | GCTCCATA | -0.0238
70 | CGTGCTCC | -0.112
71 | CTGCAAGA | 0.0739
72 | ATAACCAT | 0.00076

Row | Sequence | PBM E-score
73 | ACCCCATG | -0.141
74 | GACAGAAC | 0.2
75 | GACTGACA | 0.0438
76 | GACTCTCC | -0.175
77 | AAATCCGT | 0.0225
78 | TTCCGGAA | 0.316
79 | CAAAGAAA | 0.0436
80 | CTACCGGC | -0.058
81 | ACCTTGCG | 0.0443
82 | AGAGTCCA | -0.06
83 | ATTCGGTG | 0.0535
84 | AAGCTACT | 0.133
85 | AAAGTTAG | 0.107
86 | ATGTCGCC | -0.131
87 | CATACCAG | -0.0533
88 | GCTGGTTA | 0.0516
89 | ATATGAAG | -0.0301
90 | ATGTGCAA | 0.00609
91 | CACTAGCC | -0.0631
92 | CACAAAAA | 0.186
93 | AACCGCCT | -0.0343
94 | ACGATTAT | 0.135

Given comma-delimited: part of the list above.
Row,Sequence,PBM E-score
68,ACCCCGGG,-0.111
69,GCTCCATA,-0.0238
70,CGTGCTCC,-0.112
72,ATAACCAT,0.00076
74,GACAGAAC,0.2
75,GACTGACA,0.0438
76,GACTCTCC,-0.175
77,AAATCCGT,0.0225
78,TTCCGGAA,0.316
80,CTACCGGC,-0.058
81,ACCTTGCG,0.0443
82,AGAGTCCA,-0.06
83,ATTCGGTG,0.0535
84,AAGCTACT,0.133
85,AAAGTTAG,0.107
86,ATGTCGCC,-0.131
87,CATACCAG,-0.0533
88,GCTGGTTA,0.0516
89,ATATGAAG,-0.0301
90,ATGTGCAA,0.00609
91,CACTAGCC,-0.0631
92,CACAAAAA,0.186
93,AACCGCCT,-0.0343
94,ACGATTAT,0.135

Copied from above, nos. 84–85
Row | Sequence | PBM E-score
84 | AAGCTACT | 0.133
85 | AAAGTTAG | 0.107
